These results are taken from paper doi:10.1101/844365.

By UniProt entry, the sequences of proteins in these tests, tags left out.
UniProt O80339: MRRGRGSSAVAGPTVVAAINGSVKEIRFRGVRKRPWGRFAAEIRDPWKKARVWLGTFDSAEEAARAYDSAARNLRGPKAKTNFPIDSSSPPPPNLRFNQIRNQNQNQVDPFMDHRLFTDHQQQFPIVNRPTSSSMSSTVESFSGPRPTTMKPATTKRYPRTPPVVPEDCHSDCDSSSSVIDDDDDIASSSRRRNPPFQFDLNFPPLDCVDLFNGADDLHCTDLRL
UniProt O80340: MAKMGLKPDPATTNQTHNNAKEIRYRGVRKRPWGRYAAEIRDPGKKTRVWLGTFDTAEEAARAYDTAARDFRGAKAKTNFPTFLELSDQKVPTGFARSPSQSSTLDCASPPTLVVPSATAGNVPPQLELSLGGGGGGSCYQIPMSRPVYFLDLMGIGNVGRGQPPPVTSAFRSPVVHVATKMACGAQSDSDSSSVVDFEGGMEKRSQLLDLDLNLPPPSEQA
UniProt Q9C5I3: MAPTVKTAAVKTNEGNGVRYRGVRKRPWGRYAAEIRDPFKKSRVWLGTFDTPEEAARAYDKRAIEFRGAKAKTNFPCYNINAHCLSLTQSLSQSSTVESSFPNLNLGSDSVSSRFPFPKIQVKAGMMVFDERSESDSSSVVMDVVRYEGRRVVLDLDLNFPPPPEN

This experiment concerns the target T1, AtTPL (TOPLESS), GAL4 binding domain fusion (Arabidopsis thaliana) (UniProt Q94AI7).
T1 sequence: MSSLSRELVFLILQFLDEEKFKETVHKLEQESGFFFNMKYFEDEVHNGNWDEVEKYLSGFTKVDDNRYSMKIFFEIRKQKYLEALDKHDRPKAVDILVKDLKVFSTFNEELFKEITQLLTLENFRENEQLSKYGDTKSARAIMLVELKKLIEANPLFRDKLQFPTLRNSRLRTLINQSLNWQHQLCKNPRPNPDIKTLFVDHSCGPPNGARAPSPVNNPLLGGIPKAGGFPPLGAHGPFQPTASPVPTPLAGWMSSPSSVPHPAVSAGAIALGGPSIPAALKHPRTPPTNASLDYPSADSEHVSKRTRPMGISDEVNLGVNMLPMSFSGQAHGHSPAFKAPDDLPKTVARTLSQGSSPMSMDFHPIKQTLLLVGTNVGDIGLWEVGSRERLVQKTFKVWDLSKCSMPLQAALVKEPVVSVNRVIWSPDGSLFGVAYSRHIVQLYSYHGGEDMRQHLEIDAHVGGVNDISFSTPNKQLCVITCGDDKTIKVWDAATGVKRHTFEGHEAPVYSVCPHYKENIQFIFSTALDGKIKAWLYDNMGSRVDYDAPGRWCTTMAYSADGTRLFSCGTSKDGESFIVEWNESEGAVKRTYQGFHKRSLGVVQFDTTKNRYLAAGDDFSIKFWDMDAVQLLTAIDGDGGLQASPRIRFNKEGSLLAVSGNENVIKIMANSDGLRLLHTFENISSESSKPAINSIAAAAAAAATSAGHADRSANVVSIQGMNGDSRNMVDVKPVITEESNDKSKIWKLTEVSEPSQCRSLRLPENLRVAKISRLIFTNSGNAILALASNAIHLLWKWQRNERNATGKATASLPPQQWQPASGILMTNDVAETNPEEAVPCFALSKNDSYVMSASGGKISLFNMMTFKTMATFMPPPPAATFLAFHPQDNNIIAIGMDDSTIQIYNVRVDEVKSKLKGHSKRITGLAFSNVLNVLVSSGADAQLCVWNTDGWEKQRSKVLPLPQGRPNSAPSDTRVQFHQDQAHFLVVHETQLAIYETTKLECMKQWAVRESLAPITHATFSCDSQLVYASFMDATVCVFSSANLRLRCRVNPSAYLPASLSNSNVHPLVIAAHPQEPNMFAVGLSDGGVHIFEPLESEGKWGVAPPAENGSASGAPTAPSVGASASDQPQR
Nature of the experiment: two-hybrid.

No constants are given. Whether binding was seen depends on the method and setting. Some binding calls cover weakened binding; strength is not graded here. Tags and fused reporters may be left off the sequences shown.

In the case of “ERF3, GAL4 activation domain fusion (from UniProt O80339 1-225)”, the binding entry was “binds”.

Turning to “ERF4, GAL4 activation domain fusion (from UniProt O80340 1-222)”, the binding result is “binds”.

Take “ERF11, GAL4 activation domain fusion (from UniProt Q9C5I3 1-166)”: the binding result is given as “binds”.
